Record: PubChem BioAssay AID1259425 (University of Nebraska Medical Center, 2018)
The whole screen tested about 14,000 reagents; this is a part drawn at random. Some reagents were tested in more than one well and are listed for each. Further read-outs or replicates are left out here. The record does not give: the time to read-out.

Aim: 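Compare each knockdown with KSR1 silencing using changes in marker transcripts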 (primary screen)
System: HCT116 human colon cancer cells
Knock-down reagent: siRNA pool against human genes, 50 nM siRNA
Detection: 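After 50 nM siRNA pool, branched-DNA assay measures six marker transcripts per well, minus blank, normalised to the geometric mean of two housekeeping transcripts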
Direction: BNIP3L mRNA: higher = more BNIP3L transcript after knockdown; NDRG1 mRNA: higher = more NDRG1 transcript after knockdown

Target gene,"BNIP3L mRNA, set 1","NDRG1 mRNA, set 1"
VWA8,0.0705,0.355
VPS37B,0.0868,0.328
TXNIP,0.128,0.186
ATPAF1,0.127,0.422
CLN6,0.13,0.218
SLC38A3,0.0932,0.382
TLR9,0.118,0.103
XDH,0.364,0.744
ANKRD55,0.124,0.298
TMEM143,0.143,0.526
HS3ST4,0.243,0.537
PLXNB3,0.0695,0.119
ZNF408,0.113,0.236
HCRTR2,0.112,0.323
EDEM2,0.083,0.267
TPD52L1,0.11,0.0402
COL6A1,0.138,0.127
AVPR1A,0.145,0.201
AVPR1A,0.106,0.34
SALL3,0.0754,0.166
GRM2,0.243,0.253
RABEPK,0.17,0.156
DBNDD2,0.1,0.337
MTO1,0.0802,0.292
PVALB,0.0667,0.5
XKR6,0.249,0.391
ALKBH7,0.174,0.195
BMP10,0.183,0.456
GRM6,0.154,0.222
ADORA2B,0.163,0.16
GUCY1A2,0.0907,0.165
INTU,0.115,0.214
NASP,0.155,0.229
NFE2L3,0.141,0.099

Taken from above.
Under “BNIP3L mRNA, set 1”, XKR6 has 0.249
CLN6, BNIP3L mRNA, set 1: 0.13
Under “BNIP3L mRNA, set 1”, HCRTR2 shows 0.112
HS3ST4, BNIP3L mRNA, set 1 → 0.243
